In patent US20230348419A1, “BIAMINOQUINOLINES AND NANOFORMULATIONS FOR CANCER TREATMENT” (The Regents of the University of California, priority 2019, published 2023):
For some of these results: At least one compound was matched to its structure with a doubt left. Some of these results come from one statement about several compounds together.

How the values were obtained:
[1] = pH-responsive dissociation of NPs (size change); format: physicochemical; details: NPs 10 μM in acetate buffer
[2] = as free base or hydrochloride salt forms
[3] = Drug loading using BAQ13 NPs; format: physicochemical
Experimental: Preparation and characterization of BAQ ONNs. NPs were prepared through the re-precipitation method. BAQ derivatives in methanol were added dropwise into MilliQ water while stirring for 5 min (volume ratio, 1:10), and then homogenous NPs were obtained after rotary evaporation (40° C., 20 min), followed by the characterization with Zetasizer Nano ZS (Malvern). The TEM samples were prepared by dropping 0.5 mM NPs on carbon square mesh and dried naturally, which were then observed under the Talos L120C TEM (FEI) at an accelerating voltage of 80 kV. To determine the drug content in nanoformulations, the prepared drug-loaded NPs were cut off by centrifugal filter (ultracel-10 kDa, Millipore), and the absorbance of filtrate (diluted with DMSO, 1:10, volume ratio) was measured for calculation of drug concentrations.
Next investigation was whether liposome-like BAQ ONNs can encapsulate additional agents. Upon nanoprecipitation of BAQ13 and various agents, homogeneous NPs with monomodal size distributions spontaneously formed (Table 2 and FIG. 9G).

[4] = BAQ13 NPs loaded with the drug or dye

| critical dissociation pH [1] | solubility in water [2] | PDI [3, 4] | Size/diameter [3, 4] [nm] | Encapsulation efficiency ([3]; drug or dye loaded in BAQ13 NPs) [%] | Drug-loading content ([3]; drug or dye loaded in BAQ13 NPs, mass ratio) [%] | Compound |
| --- | --- | --- | --- | --- | --- | --- |
| 5.5-6.0 | not completely soluble in water | – | – | – | – | CCCCCCCCCCCCCN(CCNc1ccnc2cc(Cl)ccc12)CCNc1ccnc2cc(Cl)ccc12 [BAQ13] |
| 5.0-5.5 | not completely soluble in water | – | – | – | – | CCCCCCCCCCCCCCCN(CCNc1ccnc2cc(Cl)ccc12)CCNc1ccnc2cc(Cl)ccc12 [BAQ15] |
| 5.0-5.5 | not completely soluble in water | – | – | – | – | CCCCCCCCCCCCCCCCCCN(CCNc1ccnc2cc(Cl)ccc12)CCNc1ccnc2cc(Cl)ccc12 [BAQ18] |
| 5.5-6.0 | not completely soluble in water | – | – | – | – | CCCCCCCCCCCCCCN(CCNc1ccnc2cc(Cl)ccc12)CCNc1ccnc2cc(Cl)ccc12 [BAQ14] |
| – | – | 0.15 | 85 | 90 | 50 | CO[C@H]1C[C@@H]2CC[C@@H](C)[C@@](O)(O2)C(=O)C(=O)N2CCCC[C@H]2C(=O)O[C@H]([C@H](C)C[C@@H]2CC[C@@H](O)[C@H](OC)C2)CC(=O)[C@H](C)/C=C(\C)[C@@H](O)[C@@H](OC)C(=O)[C@H](C)C[C@H](C)/C=C/C=C/C=C/1C [Rapamycin] |
| 5.5-6.0 | not completely soluble in water | – | – | – | – | CCCCCCCCCCCCN(CCNc1ccnc2cc(Cl)ccc12)CCNc1ccnc2cc(Cl)ccc12 [BAQ12] |
| 5.0-5.5 | not completely soluble in water | – | – | – | – | CCCCCCCCCCCCCCCCN(CCNc1ccnc2cc(Cl)ccc12)CCNc1ccnc2cc(Cl)ccc12 [BAQ16] |
